Assay results reported in patent US20100015654A1 (INSTITUT DE RECHERCHES CLINIQUES DE MONTREAL I R C M, published 2010).
Results are given in words; binding and its absence hold for the method and conditions named. Binding seen in cells or lysates may run through a third protein. Some binding calls cover weakened binding; strength is not graded here.

Key:
[1] = molecular target: T1, mouse 2B4 (CD244), endogenous in IL-2-activated mouse NK cells (mouse) (UniProt Q07763); assay: co-immunoprecipitation from mouse NK cells
T1 sequence (constitutively tyrosine phosphorylated in mouse NK cells (sites not stated), looked up): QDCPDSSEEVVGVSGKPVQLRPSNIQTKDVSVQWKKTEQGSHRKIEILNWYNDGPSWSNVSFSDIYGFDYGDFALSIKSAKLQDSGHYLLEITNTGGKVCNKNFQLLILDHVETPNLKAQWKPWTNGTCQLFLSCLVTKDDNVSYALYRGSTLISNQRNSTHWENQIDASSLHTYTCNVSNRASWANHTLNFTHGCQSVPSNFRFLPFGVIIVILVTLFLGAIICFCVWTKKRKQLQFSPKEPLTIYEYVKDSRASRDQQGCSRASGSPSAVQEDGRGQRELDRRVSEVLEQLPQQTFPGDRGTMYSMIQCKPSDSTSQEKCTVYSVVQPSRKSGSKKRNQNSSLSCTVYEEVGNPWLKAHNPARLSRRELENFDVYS

[2] = molecular target: T1, mouse 2B4 (CD244), endogenous in IL-2-activated mouse NK cells (mouse); assay: co-immunoprecipitation from IL-2-activated mouse NK cells, anti-2B4 immunoblot
[3] = molecular target: T1, mouse 2B4 (CD244), endogenous in IL-2-activated mouse NK cells (mouse); assay: co-immunoprecipitation from IL-2-activated mouse NK cells, anti-2B4 immunoblot (FIG. 5)

Measured: binding

B1: mouse SAP (other, UniProt O88890 1-126, looked up)
chain: MDAVTVYHGKISRETGEKLLLATGLDGSYLLRDSESVPGVYCLCVLYQGYIYTYRVSQTETGSWSAETAPGVHKRFFRKVKNLISAFQKPDQGIVTPLQYPVEKSSGRGPQAPTGRRDSDICLNAP
notes: Intracellular adaptor made of an SH2 domain and a short tail
binds: all assays above
